Test results reported in PubChem BioAssay AID493014 (National Center for Advancing Translational Sciences (NCATS), 2011).
This is one part of the list. Further columns of the screen follow, without active or inactive calls. Most of these compounds were active or inconclusive in the main read-out, so they are no random draw. The note in brackets gives the kind of curve behind each potency; many fits are weak.

Experiment: qHTS Assay to Find Inhibitors of Chronic Active B-Cell Receptor Signaling
Details: ABC-DLBCL IkBa-CBG/CBR reporter, luminescence ratio (green luciferase fused to IkBa over red control in TMD8 lymphoma cells), 4 h
Method in brief: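 TMD8 human ABC-DLBCL cells with doxycycline-inducible IκBα–green luciferase fusion and unfused red luciferase, in 0.5% FBS medium; compounds up to 46 uM, 4 h at 37C. Green/red luminescence ratio, filter-overlap corrected, fitted to concentration-response curves.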

[1] = measured here: CBR red luminescence, cell number

Compound | AC50 [1] | AC50 (measured here: IkBa-CBG green luminescence)
COc1ccc(Nc2oc(-c3cccs3)nc2C#N)cc1 | 35.5 µM [falling, single point] | –
S=c1[nH]c2cc3c(cc2[nH]1)OCCO3 | 6.31 µM [falling, single point] | –
O=C(N/N=C/c1ccc[nH]1)c1cccc(Br)c1 | 29.1 µM [falling, single point] | –
CN(C)S(=O)(=O)c1ccc(C(=O)OCc2nnc(-c3ccccc3)o2)cc1 | 0.562 µM [rising, full curve, poor fit] | –
O=c1oc2ccc(Cl)cc2cc1-c1nnc(Nc2cccc(C(F)(F)F)c2)s1 | 0.103 µM [rising, full curve, poor fit] | –
COc1ccc(OC)c(CN2CCN(CC(=O)Nc3ccccc3C(=O)NC3CC3)CC2)c1 | 0.651 µM [rising, single point] | –
c1ccc(-c2ncc(-c3ccn[nH]3)s2)cc1 | 11.2 µM [falling, partial curve] | –
COc1ccc(Cn2c(=N)c(C(=O)NCC3CCCO3)cc3c(=O)n4ccccc4nc32)cc1 (configuration not stated) | 35.5 µM [falling, single point] | –
c1ccc(-c2csc(-c3ccc(-c4csnn4)cc3)n2)cc1 | 0.794 µM [rising, full curve, poor fit] | –
CC1=NN(C(=O)CSCc2ccccc2)C(O)(c2ccccc2)C1 (configuration not stated) | 35.5 µM [falling, single point] | –
CCOc1cc(/C=N\NC(=O)c2ccc(NC(=O)C(C)(C)C)cc2)ccc1OC(=O)c1ccc(OC)cc1 | 0.116 µM [falling, full curve, poor fit] | –
Cc1c(C#N)sc2nc(-c3ccccc3)nc(N3CCCC3)c12 | 32.6 µM [falling, single point] | –
COc1ccccc1C(=O)N(CCN(C)C)c1nc2cc(C)cc(C)c2s1 | 35.5 µM [falling, single point] | –
COCCN(C(=O)C(C)C)c1nnc(-c2ccc(C(C)(C)C)cc2)s1 | 31.6 µM [rising, single point] | –
CC(C)(C)C(=O)N/C(N)=N/c1nc2ccccc2o1 | 11.2 µM [falling, partial curve, poor fit] | –
N/C(=N\OC(=O)c1ccc(Cl)cc1)c1ccn[nH]1 | 14.1 µM [falling, single point] | –
CC(C)n1cnc2c(N(C)c3ccccc3)nc(N(CCN(C)C)Cc3ccccc3)nc21 | 20 µM [falling, partial curve, poor fit] | –
O=C(c1cccnc1NCc1ccc(F)cc1)N1CCOCC1 | 1.41 µM [rising, partial curve, poor fit] | –
N#CCCn1nnc(-c2ccccc2F)n1 | 18.4 µM [rising, partial curve, poor fit] | –
OCCNCC(O)CN1c2ccccc2Sc2ccccc21 (configuration not stated) | 25.1 µM [falling, single point] | –
COc1ccc(C(=O)NCCOc2ccccc2Cl)c(OC)c1OC | 0.112 µM [rising, full curve, poor fit] | –
Cc1nn(-c2ccccc2)c(Cl)c1C(=O)Nc1c(C)n(C)n(-c2ccccc2)c1=O | 0.1 µM [falling, full curve, poor fit] | –

Compound | AC50 [1] | AC50 (measured here: IkBa-CBG green luminescence)
CCN(CC)S(=O)(=O)c1ccc(N2CCOCC2)c(NC(=O)Cc2cccc3ccccc23)c1 | 18.4 µM [rising, partial curve, poor fit] | –
O=C(CSc1nc(-c2ccccc2)cs1)NCCN1C(=O)CSC1=O | 20 µM [rising, partial curve, poor fit] | –
Cc1cc(Cl)ccc1OCc1cn2cccnc2n1 | 0.708 µM [rising, full curve] | –
COc1cc(/C=C(\C#N)C(=O)Nc2ccccn2)ccc1O | 10 µM [falling, partial curve] | –
C=CCn1nc2n(c1=O)-c1ccccc1SC2 | 11.2 µM [rising, single point] | –
Cc1noc(C)c1C(=O)N(C)CC(=O)Nc1ccc(F)c(F)c1F | 18.4 µM [rising, single point] | –
COc1ccc(NC(=O)c2oc3ccccc3c2NC(=O)C2CC2)cc1OC | 0.501 µM [falling, full curve] | –
O=C(Nc1cc(Cl)ccc1N1CCOCC1)c1cc2ccccc2o1 | 0.501 µM [falling, full curve] | –
Cc1ccc(-c2nn(-c3ccccc3)cc2CNCc2ccccc2)cc1 | 15.8 µM [falling, single point] | –
O=C(C[n+]1ccc(Cc2ccccc2)cc1)Nc1ccccc1 | 11.2 µM [falling, partial curve, poor fit] | –
Cn1c(SCC(=O)NCC2CCCO2)nc2c([nH]c3ccccc32)c1=O (configuration not stated) | 1.3 µM [falling, full curve, poor fit] | –
CCOC(=O)c1c(C)[nH]c(C(=O)COC(=O)CCC2CCCC2)c1C | 29.1 µM [rising, single point] | –
O=c1cc(-c2ccccc2)nc2cc(-c3ccc(Br)cc3)[nH]n12 | 0.398 µM [falling, full curve, poor fit] | –
CCOc1ccc2nc(N3CCCC(C(=O)NCCCN4CCCCC4)C3)sc2c1 (configuration not stated) | 12.6 µM [falling, partial curve, poor fit] | –
CCNC(=O)c1cc(S(=O)(=O)N(C)C)c(Cl)cc1Cl | 35.5 µM [rising, single point] | –
CC(=O)c1ccc(N=c2scc(C)n2C(C)C)cc1 | 35.5 µM [rising, single point] | –
CCCN(CC(=O)Nc1ccccc1C)C(=O)c1ccc(-c2ccc(C(C)=O)cc2)o1 | 29.1 µM [falling, single point] | –
CCOC(=O)c1c(-c2ccccc2)oc2ccc(OC(C)C(=O)O)cc12 (configuration not stated) | 2.51 µM [falling, full curve, poor fit] | –
COC(=O)c1ccc2c(c1)C(C)(C)C(/C=C/c1ccc(O)cc1)=[N+]2C | 16.4 µM [falling, single point] | –
COc1ccc(NC(=O)/C(C#N)=C\c2cc(C)n(-c3ccc4c(c3)OCO4)c2C)cc1 | 5.8 µM [rising, full curve] | 5.8 µM [falling, full curve]
CCOC(=O)C1=C(C)C(c2ccccc2O)NC(=O)N1 (configuration not stated) | 0.366 µM [falling, partial curve, poor fit] | –
CC(=O)Nc1ccc(/C=N/N2C(=O)NC(C)(c3ccc(OC(F)F)cc3)C2=O)cc1 (configuration not stated) | 14.1 µM [falling, single point] | –

Compound | AC50 [1] | AC50 (measured here: IkBa-CBG green luminescence)
CCCN(CC(=O)Nc1cc(Cl)ccc1Cl)C(=O)CN1C(=O)C2CCCCC2C1=O (configuration not stated) | 5.62 µM [falling, single point] | –
CC(C)c1cc(C(=O)N/N=C/c2c[nH]c3ccccc23)n[nH]1 | 15.8 µM [falling, single point] | –
COC(=O)C1CCN(C(=O)Cc2ccc(Br)cc2)CC1 | 0.146 µM [rising, full curve, poor fit] | –
COc1ccc(-c2oc(=O)c3cc(OC)c(OC)cc3c2-c2cc(F)cc(OC)c2)cc1 | 9.2 µM [falling, partial curve] | –
Cc1cccc(C(=O)NC(=S)N(C)C2CCCCC2)c1 | 0.631 µM [rising, partial curve, poor fit] | –
CCOc1ccccc1NC(=O)CCNC(=O)c1ccc(Cl)cc1 | 35.5 µM [rising, single point] | –
CCc1cc(C(=O)Cc2nc3ccccc3s2)c(O)cc1OCC(=O)O | 2.24 µM [falling, full curve, poor fit] | –
N#C/C(=C(\O)CCl)c1nnc2n1CCCCC2 | 3.26 µM [rising, single point] | –
Cc1c(/C(O)=C2\C(=O)C(=O)N(CCN(C)C)C2c2cccs2)cnn1-c1ccccc1 (configuration not stated) | 3.98 µM [falling, partial curve] | –
O=C(NCCOCCNC(=O)OCc1ccccc1)OCc1ccccc1 | 6.31 µM [falling, single point] | –
CCOC(=O)N1CCN(C(=O)C(C)n2nc(C)n3c(cc4sccc43)c2=O)CC1 (configuration not stated) | 2.59 µM [rising, partial curve] | –
CC(C)NC(=O)c1cc2c(=O)n3ccccc3nc2s1 | 3.16 µM [rising, partial curve, poor fit] | –
CCc1ccc(OCC(=O)NCCc2ccc3c(c2)OCCO3)cc1 | 18.4 µM [rising, partial curve, poor fit] | –
COc1ccc(CCNC(=O)c2cc(-c3ccccc3OC)on2)cc1OC | 2.51 µM [falling, partial curve] | –
COc1ccc(-c2csc(-c3ccc(C(=O)O)cc3)n2)cc1 | 12.6 µM [falling, partial curve] | –
Fc1ccccc1COc1ccc2ccccc2c1CNc1nn[nH]n1 | 10 µM [rising, partial curve] | –
Cc1cc(Cn2nc(-c3ccccc3)cc2C(=O)NCc2cccc(C(F)(F)F)c2)on1 | 29.1 µM [falling, single point] | –
Cc1ccsc1C1C=C(c2cccc(Br)c2)Nc2ncnn21 (configuration not stated) | 35.5 µM [falling, single point] | –
COC(=O)c1c(N)sc(Cc2ccccc2)c1C | 11.2 µM [rising, partial curve, poor fit] | –
COc1cccc(-c2csc(N3CCN(C(=O)Nc4ccc(Cl)cc4)CC3)n2)c1 | 0.112 µM [rising, full curve, poor fit] | –
O=C(OCC(=O)c1cccs1)c1ccccc1 | 35.5 µM [falling, single point] | –
C=CCNC(=O)c1ccc2c3n(nc2c1)-c1ccccc1CO3 | 11.2 µM [falling, partial curve, poor fit] | –

Sorted by count of non-hydrogen atoms (low to high): some entries from above
Compound | AC50 [1] | AC50 (measured here: IkBa-CBG green luminescence)
S=c1[nH]c2cc3c(cc2[nH]1)OCCO3 | 6.31 µM [falling, single point] | –
N#C/C(=C(\O)CCl)c1nnc2n1CCCCC2 | 3.26 µM [rising, single point] | –
COC(=O)c1c(N)sc(Cc2ccccc2)c1C | 11.2 µM [rising, partial curve, poor fit] | –
CCNC(=O)c1cc(S(=O)(=O)N(C)C)c(Cl)cc1Cl | 35.5 µM [rising, single point] | –
Cc1cccc(C(=O)NC(=S)N(C)C2CCCCC2)c1 | 0.631 µM [rising, partial curve, poor fit] | –
OCCNCC(O)CN1c2ccccc2Sc2ccccc21 (configuration not stated) | 25.1 µM [falling, single point] | –
O=c1cc(-c2ccccc2)nc2cc(-c3ccc(Br)cc3)[nH]n12 | 0.398 µM [falling, full curve, poor fit] | –
Cc1noc(C)c1C(=O)N(C)CC(=O)Nc1ccc(F)c(F)c1F | 18.4 µM [rising, single point] | –
O=C(CSc1nc(-c2ccccc2)cs1)NCCN1C(=O)CSC1=O | 20 µM [rising, partial curve, poor fit] | –
COc1ccccc1C(=O)N(CCN(C)C)c1nc2cc(C)cc(C)c2s1 | 35.5 µM [falling, single point] | –
COc1ccc(NC(=O)c2oc3ccccc3c2NC(=O)C2CC2)cc1OC | 0.501 µM [falling, full curve] | –
CCOC(=O)N1CCN(C(=O)C(C)n2nc(C)n3c(cc4sccc43)c2=O)CC1 (configuration not stated) | 2.59 µM [rising, partial curve] | –
Cc1c(/C(O)=C2\C(=O)C(=O)N(CCN(C)C)C2c2cccs2)cnn1-c1ccccc1 (configuration not stated) | 3.98 µM [falling, partial curve] | –
COc1ccc(-c2oc(=O)c3cc(OC)c(OC)cc3c2-c2cc(F)cc(OC)c2)cc1 | 9.2 µM [falling, partial curve] | –
COc1ccc(OC)c(CN2CCN(CC(=O)Nc3ccccc3C(=O)NC3CC3)CC2)c1 | 0.651 µM [rising, single point] | –
